Results: the supplement of paper PMC9578143, “Small-Molecule Ebselen Binds to YTHDF Proteins Interfering with the Recognition of N^6-Methyladenosine-Modified RNAs” (ACS Pharmacology & Translational Science, 2022)
The other results are listed elsewhere or left out. Plates or batches differ in their baseline, so values are only roughly comparable.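 Hits were defined as a z-score below −3.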

Molecular target: T1, YTHDF1 YTH domain (aa 365-554) (UniProt Q9BYJ9)
T1 sequence (whole entry): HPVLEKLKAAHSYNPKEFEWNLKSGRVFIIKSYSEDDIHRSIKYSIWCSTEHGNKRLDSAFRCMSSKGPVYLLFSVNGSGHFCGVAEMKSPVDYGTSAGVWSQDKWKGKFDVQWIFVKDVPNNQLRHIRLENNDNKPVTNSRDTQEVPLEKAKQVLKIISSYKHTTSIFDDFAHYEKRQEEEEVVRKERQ
Test: tryptophan fluorescence intensity z-score (mean); higher = higher fluorescence, less quenching (negative = binding / quenching)
Details: 10 µM

Tryptophan fluorescence intensity z-score, inactive:
COc1cc(O)ccc1C(C)=O (plate: M 17-18) 0.258, CC(=O)OCC(=O)[C@H]1CC[C@H]2[C@@H]3CCC4=CC(=O)CC[C@]4(C)[C@H]3CC[C@]12C (plate: M 1-2) 0.403, O=C(/C=C/c1ccc(O)c(O)c1)O[C@@H]1C[C@](O)(C(=O)O)C[C@@H](O)[C@H]1O (plate: M 15-16) 0.059, C=CCOC(Cn1ccnc1)c1ccc(Cl)cc1Cl (stereo not drawn) (plate: M 13-14) 0.555, COc1ccc(-c2cc(=O)c3c(OC(C)=O)cc(OC(C)=O)cc3o2)cc1 (plate: M 21-22) 0.187, Cc1cc(-c2ccccc2)nnc1NCCN1CCOCC1 (plate: M 13-14) 0.98, NC(N)=Nc1nc(CSCC/C(N)=N/S(N)(=O)=O)cs1 (plate: M 7-8) 0.0393, CC1=C(/C=C/C(C)=C/C=C/C(C)=C\C(=O)O)C(C)(C)CCC1 (plate: M 13-14) 0.375, CC/C(=C(/CC)c1ccc(O)cc1)c1ccc(O)cc1 (plate: M 1-2) 1.38, CSc1ccc2c(c1)N(CCC1CCCCN1C)c1ccccc1S2 (stereo not drawn) (plate: M 5-6) -0.508, CN(C)[C@@H]1C(O)=C(C(N)=O)C(=O)[C@@]2(O)C(O)=C3C(=O)c4c(O)cccc4[C@@](C)(O)[C@H]3[C@H](O)[C@@H]12 (plate: M 3-4) 0.0143, CC(=O)NCCc1ccc(O)c(-c2c(O)c(O)c3c(c2O)C(=O)c2c(cc(O)c(C(=O)O)c2C(=O)O)C3=O)c1 (plate: M 21-22) -0.32, COC1(C)CCC2OC2(C)CCC2C1CC2(C)C (stereo not drawn) (plate: M 21-22) 0.261, CCCCC1(COC(=O)CCC(=O)O)C(=O)N(c2ccccc2)N(c2ccccc2)C1=O (plate: M 23-24) 0.51, COc1cc(NC(C)CCCN)c2ncccc2c1 (stereo not drawn) (plate: M 5-6) -0.263, COC(=O)[C@@H]1OC(=O)[C@H]2O[C@@]23[C@@]1(C)CCC1[C@@]2(C)CCC(=O)C(C)(C)C2C[C@@H](OC(C)=O)[C@]13C (stereo partly drawn) (plate: M 15-16) 0.472, C[C@H]1[C@H](C)CC[C@]2(C(=O)O)CC[C@]3(C)C(=CC[C@@H]4[C@@]5(C)C[C@@H](O)[C@H](O)[C@@](C)(CO)[C@@H]5CC[C@]43C)[C@H]12 (plate: M 19-20) 0.2, CCN(CC)CCOC(=O)C(c1ccccc1)c1ccccc1 (plate: M 7-8) 0.178, CC(C)(C)CC(C)(C)c1ccc(O)c(Cc2ccc(Cl)cc2Cl)c1 (plate: M 21-22) 0.72, COc1cccc(OC)c1C(=O)N[C@@H]1C(=O)N2[C@@H]1SC(C)(C)[C@@H]2C(=O)O (plate: M 3-4) -0.0253, Cc1ccc(S(=O)(=O)NC(=O)NN2CCCCCC2)cc1 (plate: M 7-8) 0.237, CC(C)CCCC(C)C1CCC2C3=CCC4CC(O)CCC4(C)C3CCC21C (stereo not drawn) (plate: M 17-18) 0.258, C[C@]12CC[C@@H]3c4ccc(OS(=O)(=O)O)cc4CC[C@H]3[C@@H]1CCC2=O (plate: M 9-10) 0.162, Cc1ccsc1/C=C/C1=NCCCN1C (plate: M 9-10) -0.54, CN(C)c1ccc(O)c2c1C[C@H]1C[C@H]3[C@H](N(C)C)C(O)=C(C(N)=O)C(=O)[C@@]3(O)C(O)=C1C2=O (plate: M 3-4) -0.515, CCOc1ccc2nc3cc(N)ccc3c(N)c2c1 (plate: M 23-24) 0.0327, CCN(CC)CCNc1ccc(CO)c2sc3ccccc3c(=O)c12 (plate: M 7-8) 0.0955, O=C(COc1ccc(Cl)cc1)N1CCN(Cc2ccc3c(c2)OCO3)CC1 (plate: M 23-24) 0.521, O=c1c(O)cc([C@H]2Oc3cc(O)cc(O)c3C[C@H]2O)cc2c([C@H]3Oc4cc(O)cc(O)c4C[C@H]3O)cc(O)c(O)c12 (plate: M 15-16) 0.247, COc1cc(OC)c2c(=O)c(-c3ccc4c(c3)OCO4)coc2c1 (plate: M 17-18) 0.356, COc1cc([C@@H]2c3cc4c(cc3[C@@H](O[C@@H]3O[C@@H]5CO[C@@H](c6cccs6)O[C@H]5[C@H](O)[C@H]3O)[C@H]3COC(=O)[C@H]23)OCO4)cc(OC)c1O (plate: M 9-10) 0.0712, O=c1[nH]cnc2c1ncn2[C@@H]1O[C@H](CO)[C@@H](O)[C@H]1O (plate: M 21-22) 0.246, CC(C)Cn1c(=O)n(C)c(=O)c2[nH]cnc21 (plate: M 23-24) 0.453, CCCCOc1cc(CC2CNC(=O)N2)ccc1OC (stereo not drawn) (plate: M 23-24) 0.394, CCOC(=O)c1c(C)cc(O)cc1O (plate: M 15-16) -0.00647, CN(C)CCCN1c2ccccc2Sc2ccc(Cl)cc21 (plate: M 1-2) -0.465, O=c1ccc2ccccc2o1 (plate: M 1-2) 0.262, NCCOB(c1ccccc1)c1ccccc1 (plate: M 23-24) 0.268, CC1(C)C=Cc2cc3ccc(=O)oc3cc2O1 (plate: M 15-16) -0.0407, Nc1ccn([C@@H]2O[C@H](CO)[C@@H](O)[C@@H]2O)c(=O)n1 (plate: M 1-2) -0.314, O=C(O)[C@H](O)[C@@](O)(Cc1ccc(O)cc1)C(=O)O (plate: M 15-16) 0.684, COc1ccnc(C[S+]([O-])c2nc3cc(OC(F)F)ccc3[nH]2)c1OC (stereo not drawn) (plate: M 11-12) -0.184, CO[C@H]1C[C@H](O[C@H]2[C@H](C)[C@@H](O[C@@H]3O[C@H](C)C[C@H](N(C)C)[C@H]3O)[C@@H](C)C[C@@]3(CO3)C(=O)[C@H](C)[C@@H](O)[C@@H](C)[C@@H](C)OC(=O)[C@@H]2C)O[C@@H](C)[C@@H]1O (plate: M 5-6) -0.596
